This test has as its target B cell lymphoma 2 (Bcl-2) protein (rat (endogenous in rat heart)) (UniProt P49950). The test can be described thus: co-IP; whole heart lysate of control, diabetic and diabetic + trimetazidine rats, precleared with protein A/G sepharose, incubated overnight at 4 °C with the indicated antibodies, beads washed five times, immunoblot; which protein was precipitated is not told.

By UniProt entry, the sequences of proteins in these tests, tags left out.
UniProt P49950: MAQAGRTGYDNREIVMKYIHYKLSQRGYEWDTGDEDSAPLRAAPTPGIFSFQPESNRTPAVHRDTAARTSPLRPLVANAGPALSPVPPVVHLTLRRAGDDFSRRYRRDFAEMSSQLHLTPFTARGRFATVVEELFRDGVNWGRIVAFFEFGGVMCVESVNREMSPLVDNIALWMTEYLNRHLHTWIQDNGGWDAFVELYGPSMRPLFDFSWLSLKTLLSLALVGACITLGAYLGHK
UniProt Q91XJ1: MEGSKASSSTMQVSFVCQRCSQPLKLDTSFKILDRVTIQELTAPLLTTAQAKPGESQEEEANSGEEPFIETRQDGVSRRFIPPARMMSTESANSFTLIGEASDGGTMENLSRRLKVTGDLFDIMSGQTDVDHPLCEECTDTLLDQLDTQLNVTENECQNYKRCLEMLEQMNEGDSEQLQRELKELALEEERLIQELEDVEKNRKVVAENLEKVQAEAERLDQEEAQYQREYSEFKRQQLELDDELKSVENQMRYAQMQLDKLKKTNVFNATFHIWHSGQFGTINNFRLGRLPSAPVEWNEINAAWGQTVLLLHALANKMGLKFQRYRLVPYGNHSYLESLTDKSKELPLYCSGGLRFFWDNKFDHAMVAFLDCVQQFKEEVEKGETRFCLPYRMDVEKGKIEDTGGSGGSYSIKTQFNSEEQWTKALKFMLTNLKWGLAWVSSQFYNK

These are yes or no findings as the source states them, for the method shown. Binding seen in cells or lysates may run through a third protein. Some binding calls cover weakened binding; strength is not graded here.

As to Beclin 1 (from UniProt Q91XJ1 1-448), the binding entry is recorded as “binds”.

Source of the values: paper PMC4848862.
